Data from the supplement of paper PMC6411743.
± gives the standard deviation of the averaged measurements. The entries are a selection whose mix differs from that of the whole data set. Most values lie at the level of the controls, where differences are scatter.

The chains behind the UniProt entries cited, without tags or fusion partners. Where a name states a change or a piece, a line headed by the entry shows the natural chain unless it says otherwise.
UniProt Q9H867: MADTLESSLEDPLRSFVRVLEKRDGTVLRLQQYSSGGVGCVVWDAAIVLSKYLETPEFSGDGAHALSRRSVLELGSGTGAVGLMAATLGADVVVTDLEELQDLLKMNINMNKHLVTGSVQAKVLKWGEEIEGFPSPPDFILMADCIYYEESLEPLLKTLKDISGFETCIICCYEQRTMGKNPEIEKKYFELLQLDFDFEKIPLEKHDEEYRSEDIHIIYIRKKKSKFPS
UniProt Q9HCI7: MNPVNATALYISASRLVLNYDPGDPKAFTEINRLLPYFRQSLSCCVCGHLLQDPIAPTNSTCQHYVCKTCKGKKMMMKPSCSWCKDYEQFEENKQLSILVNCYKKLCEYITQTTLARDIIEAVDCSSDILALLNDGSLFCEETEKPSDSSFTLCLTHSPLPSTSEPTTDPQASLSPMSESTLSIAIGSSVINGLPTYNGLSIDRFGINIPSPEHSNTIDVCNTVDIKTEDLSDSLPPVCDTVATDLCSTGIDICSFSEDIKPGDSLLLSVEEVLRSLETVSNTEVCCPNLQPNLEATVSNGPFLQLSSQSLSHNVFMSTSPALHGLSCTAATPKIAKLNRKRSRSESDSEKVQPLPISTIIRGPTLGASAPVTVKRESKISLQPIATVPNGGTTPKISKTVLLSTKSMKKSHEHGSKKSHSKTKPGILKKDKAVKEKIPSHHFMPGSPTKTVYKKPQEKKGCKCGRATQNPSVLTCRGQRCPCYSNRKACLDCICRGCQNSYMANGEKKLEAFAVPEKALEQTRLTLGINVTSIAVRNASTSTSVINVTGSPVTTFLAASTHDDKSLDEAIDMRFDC
UniProt Q9H467: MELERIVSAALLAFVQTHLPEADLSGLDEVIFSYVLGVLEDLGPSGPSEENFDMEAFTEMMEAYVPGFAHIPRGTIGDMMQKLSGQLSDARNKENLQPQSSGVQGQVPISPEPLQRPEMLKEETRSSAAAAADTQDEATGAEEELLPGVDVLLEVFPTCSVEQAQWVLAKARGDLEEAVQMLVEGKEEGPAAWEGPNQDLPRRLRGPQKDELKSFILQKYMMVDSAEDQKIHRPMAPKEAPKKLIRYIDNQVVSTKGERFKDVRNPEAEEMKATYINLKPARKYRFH
UniProt Q9H9B4: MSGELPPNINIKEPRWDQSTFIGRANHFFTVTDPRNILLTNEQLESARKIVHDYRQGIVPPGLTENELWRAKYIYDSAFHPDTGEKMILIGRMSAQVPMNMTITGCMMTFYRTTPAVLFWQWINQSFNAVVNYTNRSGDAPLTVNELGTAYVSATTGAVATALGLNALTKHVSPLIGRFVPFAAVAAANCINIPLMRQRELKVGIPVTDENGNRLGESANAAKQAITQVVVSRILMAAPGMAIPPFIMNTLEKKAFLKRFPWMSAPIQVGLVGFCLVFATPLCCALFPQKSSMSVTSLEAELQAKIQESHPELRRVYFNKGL
UniProt Q9H3K2: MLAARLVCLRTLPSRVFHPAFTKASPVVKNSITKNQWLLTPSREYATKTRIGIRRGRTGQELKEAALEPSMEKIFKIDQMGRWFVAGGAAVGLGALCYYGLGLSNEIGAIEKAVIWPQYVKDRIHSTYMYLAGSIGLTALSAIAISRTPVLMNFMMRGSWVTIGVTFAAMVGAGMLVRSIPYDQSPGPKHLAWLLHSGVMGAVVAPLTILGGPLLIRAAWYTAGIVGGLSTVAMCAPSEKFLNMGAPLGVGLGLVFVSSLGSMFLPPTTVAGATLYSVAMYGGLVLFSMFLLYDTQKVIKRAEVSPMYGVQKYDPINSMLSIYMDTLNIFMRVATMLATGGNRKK
UniProt Q9GZQ3, whole entry: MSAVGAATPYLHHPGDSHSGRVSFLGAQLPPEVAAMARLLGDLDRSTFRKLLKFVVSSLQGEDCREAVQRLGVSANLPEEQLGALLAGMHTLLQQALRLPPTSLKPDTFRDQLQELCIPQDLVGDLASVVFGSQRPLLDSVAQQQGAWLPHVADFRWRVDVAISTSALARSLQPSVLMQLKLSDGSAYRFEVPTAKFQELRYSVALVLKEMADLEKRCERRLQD
UniProt Q9H267: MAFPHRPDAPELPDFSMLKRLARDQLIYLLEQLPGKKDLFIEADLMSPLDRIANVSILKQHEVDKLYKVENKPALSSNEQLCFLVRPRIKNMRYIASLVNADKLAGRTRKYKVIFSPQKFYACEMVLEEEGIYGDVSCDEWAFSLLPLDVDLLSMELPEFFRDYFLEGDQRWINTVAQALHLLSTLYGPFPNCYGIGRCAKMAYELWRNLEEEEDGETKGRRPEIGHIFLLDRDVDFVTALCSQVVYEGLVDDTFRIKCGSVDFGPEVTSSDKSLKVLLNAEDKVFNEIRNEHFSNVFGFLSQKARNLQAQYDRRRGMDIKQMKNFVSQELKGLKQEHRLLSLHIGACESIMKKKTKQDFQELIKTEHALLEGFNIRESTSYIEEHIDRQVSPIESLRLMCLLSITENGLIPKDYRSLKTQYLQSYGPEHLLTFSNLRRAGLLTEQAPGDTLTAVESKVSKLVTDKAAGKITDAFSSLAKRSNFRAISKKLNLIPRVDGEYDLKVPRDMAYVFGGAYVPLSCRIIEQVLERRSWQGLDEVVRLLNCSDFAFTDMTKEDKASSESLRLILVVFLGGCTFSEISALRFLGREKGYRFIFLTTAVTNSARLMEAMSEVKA
UniProt Q9H8W3: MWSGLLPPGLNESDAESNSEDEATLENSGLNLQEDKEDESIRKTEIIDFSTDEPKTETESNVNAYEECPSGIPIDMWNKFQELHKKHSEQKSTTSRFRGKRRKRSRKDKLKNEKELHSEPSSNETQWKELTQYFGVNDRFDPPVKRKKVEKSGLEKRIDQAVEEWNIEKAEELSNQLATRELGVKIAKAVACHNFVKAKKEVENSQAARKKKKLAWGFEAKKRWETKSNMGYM
UniProt Q9H6S0: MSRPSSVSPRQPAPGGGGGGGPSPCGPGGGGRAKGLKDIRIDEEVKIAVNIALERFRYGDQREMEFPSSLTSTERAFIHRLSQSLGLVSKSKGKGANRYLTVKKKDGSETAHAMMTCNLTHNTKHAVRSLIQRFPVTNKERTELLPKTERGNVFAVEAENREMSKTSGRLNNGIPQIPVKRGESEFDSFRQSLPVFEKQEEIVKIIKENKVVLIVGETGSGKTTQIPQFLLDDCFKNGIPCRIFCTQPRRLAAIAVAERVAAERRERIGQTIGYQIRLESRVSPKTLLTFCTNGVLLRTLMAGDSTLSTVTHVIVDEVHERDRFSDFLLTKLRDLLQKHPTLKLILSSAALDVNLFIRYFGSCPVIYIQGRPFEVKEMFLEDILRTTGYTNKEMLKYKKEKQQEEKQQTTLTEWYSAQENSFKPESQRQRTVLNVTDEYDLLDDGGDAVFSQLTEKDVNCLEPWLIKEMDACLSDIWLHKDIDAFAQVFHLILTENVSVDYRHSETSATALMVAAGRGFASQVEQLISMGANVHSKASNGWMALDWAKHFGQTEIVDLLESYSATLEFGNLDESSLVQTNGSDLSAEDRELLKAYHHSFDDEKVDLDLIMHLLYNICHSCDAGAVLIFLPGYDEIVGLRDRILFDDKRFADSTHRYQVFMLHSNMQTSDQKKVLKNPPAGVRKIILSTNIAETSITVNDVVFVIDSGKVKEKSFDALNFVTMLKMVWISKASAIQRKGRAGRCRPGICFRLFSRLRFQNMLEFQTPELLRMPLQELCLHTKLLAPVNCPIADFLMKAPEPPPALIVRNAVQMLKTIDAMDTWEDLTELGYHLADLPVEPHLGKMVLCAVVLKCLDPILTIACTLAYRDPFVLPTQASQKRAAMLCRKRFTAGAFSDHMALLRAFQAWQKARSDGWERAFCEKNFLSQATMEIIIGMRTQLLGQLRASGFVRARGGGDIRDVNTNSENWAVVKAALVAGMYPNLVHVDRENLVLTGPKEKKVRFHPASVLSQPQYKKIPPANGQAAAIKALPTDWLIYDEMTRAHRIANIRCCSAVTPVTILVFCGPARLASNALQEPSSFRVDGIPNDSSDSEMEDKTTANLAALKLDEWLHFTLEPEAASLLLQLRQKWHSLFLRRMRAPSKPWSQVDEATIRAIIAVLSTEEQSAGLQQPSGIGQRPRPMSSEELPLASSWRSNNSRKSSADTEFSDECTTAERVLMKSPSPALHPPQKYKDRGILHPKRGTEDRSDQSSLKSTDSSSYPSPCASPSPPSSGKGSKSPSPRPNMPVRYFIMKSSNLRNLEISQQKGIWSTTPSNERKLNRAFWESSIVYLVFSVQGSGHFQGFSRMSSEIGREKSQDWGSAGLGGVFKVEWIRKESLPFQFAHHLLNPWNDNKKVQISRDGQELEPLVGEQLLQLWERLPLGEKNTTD
UniProt Q9H3J6: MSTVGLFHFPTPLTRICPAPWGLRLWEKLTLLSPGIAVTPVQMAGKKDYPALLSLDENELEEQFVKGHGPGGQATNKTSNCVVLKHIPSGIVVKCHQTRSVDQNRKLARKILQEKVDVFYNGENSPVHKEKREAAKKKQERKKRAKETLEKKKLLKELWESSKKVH
UniProt Q9H6T3, whole entry: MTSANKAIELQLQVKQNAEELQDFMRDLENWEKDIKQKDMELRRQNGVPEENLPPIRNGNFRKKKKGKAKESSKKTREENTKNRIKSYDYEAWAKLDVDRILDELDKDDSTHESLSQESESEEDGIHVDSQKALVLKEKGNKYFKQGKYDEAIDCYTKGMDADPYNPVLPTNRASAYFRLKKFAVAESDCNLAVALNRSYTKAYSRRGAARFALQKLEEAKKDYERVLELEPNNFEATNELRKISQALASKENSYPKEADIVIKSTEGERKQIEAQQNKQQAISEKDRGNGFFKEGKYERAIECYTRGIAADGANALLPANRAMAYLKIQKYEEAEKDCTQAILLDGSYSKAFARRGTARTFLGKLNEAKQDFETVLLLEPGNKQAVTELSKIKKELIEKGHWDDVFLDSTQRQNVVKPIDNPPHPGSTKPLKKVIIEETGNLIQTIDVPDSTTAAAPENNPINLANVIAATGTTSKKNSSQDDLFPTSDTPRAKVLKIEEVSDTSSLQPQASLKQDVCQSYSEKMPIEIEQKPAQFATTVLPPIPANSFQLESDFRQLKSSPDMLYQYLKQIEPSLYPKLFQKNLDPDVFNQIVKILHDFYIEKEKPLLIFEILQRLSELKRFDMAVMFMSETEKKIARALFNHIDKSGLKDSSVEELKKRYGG
UniProt Q9H0D6: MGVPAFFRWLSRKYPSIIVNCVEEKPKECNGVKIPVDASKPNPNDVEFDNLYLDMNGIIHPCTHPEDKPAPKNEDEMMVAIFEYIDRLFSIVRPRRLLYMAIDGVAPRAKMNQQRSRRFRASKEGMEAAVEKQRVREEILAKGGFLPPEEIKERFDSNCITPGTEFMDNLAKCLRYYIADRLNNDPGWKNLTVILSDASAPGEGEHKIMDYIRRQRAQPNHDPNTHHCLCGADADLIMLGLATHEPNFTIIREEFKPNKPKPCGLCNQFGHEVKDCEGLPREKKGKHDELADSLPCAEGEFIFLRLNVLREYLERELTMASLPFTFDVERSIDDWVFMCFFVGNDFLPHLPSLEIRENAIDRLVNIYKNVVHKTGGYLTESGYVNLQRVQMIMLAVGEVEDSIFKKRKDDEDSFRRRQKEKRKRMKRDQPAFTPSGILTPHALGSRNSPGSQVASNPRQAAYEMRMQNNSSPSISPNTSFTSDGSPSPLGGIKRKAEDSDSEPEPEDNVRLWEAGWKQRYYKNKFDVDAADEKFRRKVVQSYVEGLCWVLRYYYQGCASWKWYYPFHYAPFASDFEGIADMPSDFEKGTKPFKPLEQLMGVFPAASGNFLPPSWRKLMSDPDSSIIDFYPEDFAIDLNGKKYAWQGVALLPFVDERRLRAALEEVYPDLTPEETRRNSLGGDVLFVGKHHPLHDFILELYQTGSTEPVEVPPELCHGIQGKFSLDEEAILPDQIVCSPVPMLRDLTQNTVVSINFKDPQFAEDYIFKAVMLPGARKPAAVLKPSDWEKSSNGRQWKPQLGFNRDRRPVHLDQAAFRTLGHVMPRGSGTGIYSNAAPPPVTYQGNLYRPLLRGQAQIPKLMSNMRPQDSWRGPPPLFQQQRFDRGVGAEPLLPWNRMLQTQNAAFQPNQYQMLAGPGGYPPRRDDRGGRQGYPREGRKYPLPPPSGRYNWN
UniProt Q9H0X4: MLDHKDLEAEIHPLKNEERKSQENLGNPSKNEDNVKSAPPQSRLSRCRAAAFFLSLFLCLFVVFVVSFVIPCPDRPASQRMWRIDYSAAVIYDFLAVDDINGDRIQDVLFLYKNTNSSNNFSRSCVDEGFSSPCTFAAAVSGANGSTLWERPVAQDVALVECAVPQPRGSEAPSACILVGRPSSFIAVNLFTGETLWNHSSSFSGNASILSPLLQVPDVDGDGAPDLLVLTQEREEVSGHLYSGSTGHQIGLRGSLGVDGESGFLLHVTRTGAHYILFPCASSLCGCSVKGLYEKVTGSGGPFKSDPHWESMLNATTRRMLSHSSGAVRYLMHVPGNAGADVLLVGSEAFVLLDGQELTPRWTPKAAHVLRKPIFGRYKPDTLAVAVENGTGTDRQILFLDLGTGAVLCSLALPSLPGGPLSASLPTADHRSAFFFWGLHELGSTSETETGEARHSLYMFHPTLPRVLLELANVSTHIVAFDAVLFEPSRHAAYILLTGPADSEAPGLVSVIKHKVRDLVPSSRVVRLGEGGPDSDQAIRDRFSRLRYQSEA

Compound: Nc1ncnc2c1ncn2[C@@H]1O[C@H](COP(=O)(O)OP(=O)(O)OP(=O)(O)O)[C@@H](O)[C@H]1O [adenosine triphosphate]
Test: NP40-soluble protein abundance relative to vehicle (solubility fold change) (ratio); higher = more soluble protein in presence of ATP
Procedure, shortened: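 Each value is a fold change relative to the detergent-processed vehicle, calculated per replicate from vsn-normalised intensities. Jurkat crude lysate received eight concentrations (0.1 to 10 mM) for 10 min at room temperature and 3 min at 37 °C, then was solubilised in 0.8% NP40 with benzonase (60 min, 4 °C). The ultracentrifuged supernatant was TMT-labelled and run by LC-MS/MS in three independent experiments.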

Target	NP40-soluble protein abundance (concentration: 0.1mM)	NP40-soluble protein abundance (concentration: 0.5mM)
GRPEL1 (UniProt Q9HAV7)	0.924 ± 0.087	0.888 ± 0.12
MED20 (UniProt Q9H944)	0.991 ± 0.025	1.02 ± 0.022
UniProt Q9H3H3-2|Q9H3H3-3	0.991 ± 0.1	0.977 ± 0.042
UniProt Q9H9Y6 and related entries	1.12 ± 0.031	1.12 ± 0.049
GORASP2 (UniProt Q9H8Y8)	0.984 ± 0.023	0.966 ± 0.042
UniProt Q9H867 and related entries	1.02 ± 0.11	0.9597 ± 0.0092
UniProt Q9HCI7 and related entries	1.17 ± 0.2	1.4 ± 0.23
ANKZF1 (UniProt Q9H8Y5)	1.04 ± 0.032	1.03 ± 0.054
UniProt Q9NP87	1.05 ± 0.043	1.04 ± 0.14
UniProt Q9C0H2 and related entries	0.931 ± 0.077	0.968 ± 0.045
UniProt Q9C0F1	0.993 ± 0.09	0.922 ± 0.028
MOV10 (UniProt Q9HCE1)	1.04 ± 0.05	1.07 ± 0.025
SCPEP1 (UniProt Q9HB40)	0.947 ± 0.028	0.905 ± 0.12
CUEDC2 (UniProt Q9H467)	0.893 ± 0.085	0.875 ± 0.088
UniProt Q9H9G7	1.07 ± 0.12	1.07 ± 0.13
SLC38A10 (UniProt Q9HBR0)	0.946 ± 0.053	0.835 ± 0.089
KLC2 (UniProt Q9H0B6)	0.977 ± 0.012	0.994 ± 0.045
UniProt Q9H2Y7 and related entries	0.925 ± 0.12	1.05 ± 0.17
SLC25A19 (UniProt Q9HC21)	0.931 ± 0.019	0.918 ± 0.067
SUDS3 (UniProt Q9H7L9)	0.969 ± 0.033	0.965 ± 0.047
SRA1 (UniProt Q9HD15)	1.02 ± 0.15	0.918 ± 0.14
PARP12 (UniProt Q9H0J9)	1.09 ± 0.046	1.07 ± 0.018
UniProt Q9H7E9 and related entries	0.915 ± 0.15	0.925 ± 0.21
PARL (UniProt Q9H300)	0.891 ± 0.066	0.929 ± 0.16

Target	NP40-soluble protein abundance (concentration: 0.1mM)	NP40-soluble protein abundance (concentration: 0.5mM)
ILKAP (UniProt Q9H0C8)	1.03 ± 0.08	1.05 ± 0.075
SFXN1 (UniProt Q9H9B4)	0.9804 ± 0.0076	0.997 ± 0.031
UniProt Q9H903 and related entries	1.08 ± 0.083	0.994 ± 0.049
UniProt Q9HA38 and related entries	0.9716 ± 0.0018	0.993 ± 0.034
FN3KRP (UniProt Q9HA64)	1.04 ± 0.063	1.07 ± 0.058
UniProt Q9H857 and related entries	1.06 ± 0.068	1.02 ± 0.082
PLEKHA3 (UniProt Q9HB20)	1.05 ± 0.097	1.01 ± 0.04
UniProt Q9H0P0 and related entries	1.02 ± 0.033	1.03 ± 0.065
UniProt Q9H078-2	1.07 ± 0.028	1.11 ± 0.025
LRRC40 (UniProt Q9H9A6)	0.999 ± 0.012	1 ± 0.034
ACTR8 (UniProt Q9H981)	1.04 ± 0.036	1.11 ± 0.046
ETNK1 (UniProt Q9HBU6)	1.04 ± 0.089	1.07 ± 0.047
UniProt Q9GZR5	0.977 ± 0.092	1.01 ± 0.032
ALG2 (UniProt Q9H553)	1.12 ± 0.063	1.06 ± 0.082
UniProt Q9H1B7	0.968 ± 0.022	0.962 ± 0.041
UniProt Q9H9E3 and related entries	1.03 ± 0.029	1.01 ± 0.058
TFB2M (UniProt Q9H5Q4)	0.97 ± 0.075	0.93 ± 0.081
WDR13 (UniProt Q9H1Z4)	0.996 ± 0.29	1.04 ± 0.067
GHITM (UniProt Q9H3K2)	0.978 ± 0.033	0.974 ± 0.076
UniProt Q9GZY8-2|Q9GZY8-5	0.998 ± 0.031	0.93 ± 0.11
TMEM126A (UniProt Q9H061)	0.968 ± 0.011	1.01 ± 0.04
COMMD5 (UniProt Q9GZQ3)	0.892 ± 0.079	0.782 ± 0.16
UniProt Q9H0W8	0.982 ± 0.02	1.03 ± 0.052
UniProt Q9H2G2-2	0.988 ± 0.033	1.01 ± 0.032

A section taken from the entries so far, as a working copy:
Target	NP40-soluble protein abundance (concentration: 0.1mM)	NP40-soluble protein abundance (concentration: 0.5mM)
UniProt Q9GZR5	0.977 ± 0.092	1.01 ± 0.032
ALG2 (UniProt Q9H553)	1.12 ± 0.063	1.06 ± 0.082
UniProt Q9H1B7	0.968 ± 0.022	0.962 ± 0.041
UniProt Q9H9E3 and related entries	1.03 ± 0.029	1.01 ± 0.058
TFB2M (UniProt Q9H5Q4)	0.97 ± 0.075	0.93 ± 0.081
WDR13 (UniProt Q9H1Z4)	0.996 ± 0.29	1.04 ± 0.067
GHITM (UniProt Q9H3K2)	0.978 ± 0.033	0.974 ± 0.076

Further results follow.

Target	NP40-soluble protein abundance (concentration: 0.1mM)	NP40-soluble protein abundance (concentration: 0.5mM)
UniProt Q9H3R0 and related entries	1.11 ± 0.092	1.016 ± 0.0026
UniProt Q9H7X7 and related entries	0.978 ± 0.029	1.01 ± 0.023
CBX8 (UniProt Q9HC52)	1.02 ± 0.034	1.06 ± 0.05
OSBPL3 (UniProt Q9H4L5)	1.04 ± 0.019	1.09 ± 0.048
PDCL3 (UniProt Q9H2J4)	0.961 ± 0.044	0.958 ± 0.059
WDR61 (UniProt Q9GZS3)	1.04 ± 0.068	1.04 ± 0.042
UniProt Q9H330 and related entries	0.982 ± 0.034	0.941 ± 0.058
CSTF2T (UniProt Q9H0L4)	1.008 ± 0.0075	1 ± 0.0094
WDR54 (UniProt Q9H977)	1.05 ± 0.058	0.983 ± 0.1
UniProt Q9HA65 and related entries	0.963 ± 0.029	0.982 ± 0.013
CACYBP (UniProt Q9HB71)	0.976 ± 0.043	1.01 ± 0.036
GAN (UniProt Q9H2C0)	1.05 ± 0.085	1.02 ± 0.13
PNN (UniProt Q9H307)	0.933 ± 0.1	1.01 ± 0.16
UniProt Q9HCJ3 and related entries	0.909 ± 0.069	0.932 ± 0.024
TNKS1BP1 (UniProt Q9C0C2)	1.02 ± 0.057	1.07 ± 0.12
UniProt Q9H8U3 and related entries	0.934 ± 0.035	0.897 ± 0.074
UniProt Q9H334 and related entries	0.985 ± 0.041	1 ± 0.064
RAB3GAP2 (UniProt Q9H2M9)	1.06 ± 0.051	1.05 ± 0.049
GPN1 (UniProt Q9HCN4)	1.02 ± 0.026	0.992 ± 0.014
UniProt Q9GZT3	0.941 ± 0.064	0.931 ± 0.12
UniProt Q9H9V9 and related entries	1.04 ± 0.15	1.03 ± 0.22
UniProt Q9H6R7 and related entries	0.969 ± 0.085	0.956 ± 0.098
UniProt Q9H246	0.988 ± 0.16	1.1 ± 0.16
UniProt Q9H2V7 and related entries	1.04 ± 0.055	1.04 ± 0.096

Target	NP40-soluble protein abundance (concentration: 0.1mM)	NP40-soluble protein abundance (concentration: 0.5mM)
UniProt Q9H425 and related entries	0.987 ± 0.06	1 ± 0.066
EHD1 (UniProt Q9H4M9)	1.03 ± 0.066	1.03 ± 0.058
VPS33B (UniProt Q9H267)	1.04 ± 0.048	1.03 ± 0.082
GOLPH3 (UniProt Q9H4A6)	0.977 ± 0.025	0.986 ± 0.063
UniProt Q9H8W3	1.04 ± 0.07	1.18 ± 0.082
EGLN1 (UniProt Q9GZT9)	1.01 ± 0.05	1.01 ± 0.06
DEF6 (UniProt Q9H4E7)	1 ± 0.032	0.968 ± 0.036
YTHDC2 (UniProt Q9H6S0)	1.12 ± 0.032	1.25 ± 0.029
C12orf10 (UniProt Q9HB07)	1.04 ± 0.032	1.02 ± 0.053
UniProt Q9HC38-2|F6TLX2	1.03 ± 0.084	0.998 ± 0.13
UniProt Q9H2D6 and related entries	1.06 ± 0.052	1.02 ± 0.084
UniProt Q9NP50	0.9464 ± 0.0032	0.979 ± 0.046
UniProt Q9HCE9 and related entries	0.94 ± 0.13	0.934 ± 0.14
UniProt Q9GZS1-2	1 ± 0.051	1.03 ± 0.036
UniProt Q9H3U1 and related entries	0.997 ± 0.036	0.969 ± 0.034
UniProt Q9H8M2 and related entries	0.996 ± 0.012	1.05 ± 0.046
GPN2 (UniProt Q9H9Y4)	1.16 ± 0.21	1.11 ± 0.022
UCK1 (UniProt Q9HA47)	0.958 ± 0.041	0.904 ± 0.14
MRPL44 (UniProt Q9H9J2)	0.97 ± 0.081	1.01 ± 0.082
UniProt Q9H7Z6 and related entries	1.02 ± 0.026	1.05 ± 0.043
UniProt Q9C0B5 and related entries	0.992 ± 0.023	0.909 ± 0.022
PLEKHA1 (UniProt Q9HB21)	1 ± 0.065	1.02 ± 0.03
RHOF (UniProt Q9HBH0)	1.07 ± 0.19	1.08 ± 0.13
UniProt Q9H0R5 and related entries	0.913 ± 0.068	0.969 ± 0.029

Target	NP40-soluble protein abundance (concentration: 0.1mM)	NP40-soluble protein abundance (concentration: 0.5mM)
UniProt Q9HBK9	0.982 ± 0.12	0.983 ± 0.05
UniProt Q9H4L7 and related entries	1.02 ± 0.034	1.01 ± 0.045
TLNRD1 (UniProt Q9H1K6)	0.964 ± 0.05	1.048 ± 0.0076
UniProt Q9HAS0 and related entries	1.013 ± 0.0077	1.06 ± 0.037
CWC22 (UniProt Q9HCG8)	0.989 ± 0.019	0.953 ± 0.12
UniProt Q9H668	0.925 ± 0.18	0.991 ± 0.15
BLZF1 (UniProt Q9H2G9)	1.03 ± 0.1	1.02 ± 0.026
UniProt Q9C0I1	1 ± 0.12	1.02 ± 0.097
C12orf65 (UniProt Q9H3J6)	0.795 ± 0.034	0.804 ± 0.037
RPAP3 (UniProt Q9H6T3)	0.985 ± 0.023	1.03 ± 0.038
XRN2 (UniProt Q9H0D6)	1.01 ± 0.024	1.02 ± 0.049
UPF2 (UniProt Q9HAU5)	1.02 ± 0.022	1.02 ± 0.06
UniProt Q9HCC0-2	1.04 ± 0.028	1.02 ± 0.04
ANAPC1 (UniProt Q9H1A4)	1.03 ± 0.045	1.04 ± 0.029
UniProt Q9H7Z3 and related entries	1.04 ± 0.014	1.04 ± 0.039
UniProt Q9HCE0 and related entries	0.953 ± 0.035	1 ± 0.09
UniProt Q9H5X1	0.991 ± 0.023	0.956 ± 0.021
EML4 (UniProt Q9HC35)	1 ± 0.015	0.992 ± 0.015
ACTR5 (UniProt Q9H9F9)	1.01 ± 0.065	1.09 ± 0.024
UniProt Q9H0X4	0.916 ± 0.067	0.891 ± 0.091
UniProt Q9C037 and related entries	1.05 ± 0.043	1.05 ± 0.066
UniProt Q9H3H5 and related entries	1.08 ± 0.13	1.02 ± 0.081
UniProt Q9H8V3 and related entries	1.09 ± 0.038	1.06 ± 0.068
HMG20A (UniProt Q9NP66)	0.902 ± 0.13	0.945 ± 0.069
